# Measurements from the supplement of paper PMC12024529.
# Structures can show the parent of a compound that is named as a salt. The list shows a part of the results. Plates or batches differ in their baseline, so values are only roughly comparable.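 Wild-type or misfolding-prone missense mutant B-domain-deleted factor VIII, fused to Gaussia luciferase, is stably expressed in HEK293 lines. Each score is (mean triplicate-well luminescence minus DMSO mean) divided by DMSO standard deviation. Hits score at least 2; lower scores could stem from decreased secretion or poorer cell viability.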
# How the values were obtained:
# HEK293 WT BDD-FVIII-Gluc = test: secreted FVIII-Gluc luciferase Z-score vs DMSO control; higher = more FVIII-Gluc secretion; conditions: 5 µM; 24 h
# [1] = test system: HEK293 p.N1941S BDD-FVIII-Gluc; test: as above; conditions: 5 µM; 24 h
Compound,secreted FVIII-Gluc luciferase Z-score (HEK293 WT BDD-FVIII-Gluc),secreted FVIII-Gluc luciferase Z-score [1]
O=C(O)C(=O)O.[NH-]C1CCCCC1[NH-].[Pt+2] (stereo not given) [Oxaliplatin (Eloxatin)],inactive: -3.36,inactive: -9.76
CS(=O)(=O)CCNCc1ccc(-c2ccc3ncnc(Nc4ccc(OCc5cccc(F)c5)c(Cl)c4)c3c2)o1 [Lapatinib],inactive: 0.285,inactive: -0.116
CCOc1ccc2nc3cc(N)ccc3c(N)c2c1 [Ethacridine lactate monohydrate],inactive: 0.314,inactive: 1.54
C[C@@H](CN1CC(=O)NC(=O)C1)N1CC(=O)NC(=O)C1 [Dexrazoxane Hydrochloride],inactive: 0.157,inactive: -1.51
CC(=O)OCC(CCn1cnc2cnc(N)nc21)COC(C)=O [Famciclovir (Famvir)],inactive: 0.29,inactive: -6.43
Clc1ccc(COC(Cn2ccnc2)c2ccc(Cl)cc2Cl)cc1 (stereo not given) [Econazole nitrate (Spectazole)],inactive: -1.29,inactive: -3.21
CN(C)CC/C=C1/c2ccccc2Sc2ccc(Cl)cc21 [Chlorprothixene],inactive: -3.54,inactive: -1.91
CCN(CC)C(=O)C1(c2ccccc2)CC1CN (stereo not given) [Milnacipran HCl],inactive: 0.312,inactive: 0.0848
Nc1nc(=O)n([C@@H]2CS[C@H](CO)O2)cc1F [Emtricitabine (Emtriva)],inactive: -1.36,inactive: 1.65
COc1cccc2c1C(=O)c1c(O)c3c(c(O)c1C2=O)C[C@@](O)(C(=O)CO)C[C@@H]3O[C@H]1C[C@H](N)[C@@H](O)[C@H](C)O1 [Epirubicin HCl],inactive: -3.89,inactive: -11.2

# Part of the list above, as tab-separated lines:
Compound	secreted FVIII-Gluc luciferase Z-score (HEK293 WT BDD-FVIII-Gluc)	secreted FVIII-Gluc luciferase Z-score [1]
CC(=O)OCC(CCn1cnc2cnc(N)nc21)COC(C)=O [Famciclovir (Famvir)]	inactive: 0.29	inactive: -6.43
CCN(CC)C(=O)C1(c2ccccc2)CC1CN (stereo not given) [Milnacipran HCl]	inactive: 0.312	inactive: 0.0848
